This assay deals with GFP-SERCA2a (EGFP fused to the N terminus of human SERCA2a) (human) (UniProt P16615). Description: FRET or BRET; competition: fluorescence lifetime FRET in live HEK293 cells stably coexpressing GFP-SERCA2a (donor) and RFP-PLB (acceptor), increasing amounts of unlabeled DWORF construct DNA transiently transfected (6-well plates); E and XDA. For orientation: In BRET a luciferase serves as donor, and the signal depends on an acceptor being close.

Amino acid sequences for entries named in this document (tags omitted). A change or cut given only in a name is not applied to a line headed by its entry. Chains listed by the source or under a name are the forms on record and can include a tag or linker.
GFP-SERCA2a (EGFP fused to the N terminus of human SERCA2a) (P16615, form named): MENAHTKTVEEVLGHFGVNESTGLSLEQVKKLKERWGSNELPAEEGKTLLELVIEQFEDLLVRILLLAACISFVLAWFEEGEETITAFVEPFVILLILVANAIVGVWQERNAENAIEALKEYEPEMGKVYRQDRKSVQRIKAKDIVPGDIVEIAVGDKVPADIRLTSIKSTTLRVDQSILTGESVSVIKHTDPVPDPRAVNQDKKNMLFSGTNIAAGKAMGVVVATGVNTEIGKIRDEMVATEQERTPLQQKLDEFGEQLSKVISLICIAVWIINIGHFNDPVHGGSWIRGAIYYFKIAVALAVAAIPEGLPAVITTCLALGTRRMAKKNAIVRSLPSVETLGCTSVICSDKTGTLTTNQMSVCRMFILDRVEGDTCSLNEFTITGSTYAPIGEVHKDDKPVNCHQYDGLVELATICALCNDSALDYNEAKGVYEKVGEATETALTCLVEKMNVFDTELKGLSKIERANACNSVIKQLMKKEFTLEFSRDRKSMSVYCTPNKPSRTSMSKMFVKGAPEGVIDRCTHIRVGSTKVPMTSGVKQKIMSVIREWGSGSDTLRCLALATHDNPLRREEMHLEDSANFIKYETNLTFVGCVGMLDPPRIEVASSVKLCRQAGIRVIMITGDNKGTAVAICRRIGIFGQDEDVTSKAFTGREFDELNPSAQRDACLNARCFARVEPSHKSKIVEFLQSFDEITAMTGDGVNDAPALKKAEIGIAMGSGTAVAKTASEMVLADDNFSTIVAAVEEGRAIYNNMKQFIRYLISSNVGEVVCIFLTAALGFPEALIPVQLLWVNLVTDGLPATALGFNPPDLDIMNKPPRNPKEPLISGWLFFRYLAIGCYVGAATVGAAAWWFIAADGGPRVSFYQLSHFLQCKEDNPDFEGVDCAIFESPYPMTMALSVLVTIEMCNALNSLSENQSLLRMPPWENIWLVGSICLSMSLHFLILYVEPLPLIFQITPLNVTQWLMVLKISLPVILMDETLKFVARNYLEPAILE
UniProt P26678: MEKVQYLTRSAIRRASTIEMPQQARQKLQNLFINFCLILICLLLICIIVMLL

These are yes or no findings as the source states them, for the method shown. Binding seen in cells or lysates may run through a third protein. Some binding calls cover weakened binding; strength is not graded here.

Consider “RFP-PLB (tagRFP fused to the N terminus of human phospholamban) (from UniProt P26678 1-52)”, for which the binding result is listed as “binds”.

The values are drawn from PMC7988493.
